{"source": "PubChem BioAssay AID504444", "about": "(National Center for Advancing Translational Sciences (NCATS), 2011)", "note": "Hit rate of the full screen: of about 360,000 compounds, about 7,500 (2.1%) were called active. Inconclusive results, whose numbers are uncertain, are shown with a selection of clear calls. The call rests on the fitted dose curve; in most records, active means well fitted inhibition curve with a large enough effect; inconclusive means small, poorly fitted or top-dose-only effect, or effect the other way; inactive means flat fitted curve, though single readings scatter. Potencies beside an inconclusive call are fits to weak or partial responses and may not hold up. On the % scale 0 is the no-effect control and ±100 the full control effect; potency means the concentration at half of the fitted maximal effect.", "data": [{"test": "Nrf2 qHTS screen for inhibitors; further: nearly all actives have a fitted effect of over 60% in size", "conditions": "A549 ARE-Fluc reporter, luciferase luminescence, 18-24 h; activity change, negative = inhibition: at 46 µM (top of the series)", "method_in_brief": "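Nrf2 function is reported as luminescence of an ARE-controlled luciferase in A549 cells. Compounds were tested at several concentrations, and a CellTiter-Fluor read on the same wells flagged cytotoxicity.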", "values": [{"compound": "Nc1ccc2c(C(F)(F)F)cc(C(F)(F)F)nc2n1", "Potency": "inconclusive: 5.17 µM [falling, full curve]"}, {"compound": "Cn1c(SCC(=O)c2ccccc2)ncc(C(=O)Nc2ccccc2)c1=O", "Potency": "inconclusive: 23.1 µM [activator, single point]"}, {"compound": "C[C@@]12C(=O)N(c3cccc(F)c3)C(=O)N1[C@H](c1ccc(Cl)cc1)[C@@H]1C(=O)N(C3CCCCC3)C(=O)[C@@H]12", "Potency": "inconclusive: 25.9 µM [falling, single point]"}, {"compound": "CCNc1nc(Cl)nc(NCc2ccccc2)n1", "Potency": "inconclusive: 29.1 µM [activator, single point]"}, {"compound": "Cc1cc(N2CCCCC2)nc2ccc(NC(=O)c3cccc(F)c3)cc12", "activity change, negative = inhibition": "inactive: 0% [at 9.27 µM]"}, {"compound": "O=C1c2ccccc2-n2c1nc1ccccc1c2=O", "Potency": "active: 5.17 µM"}, {"compound": "CC(=O)N(/N=C1/C(=O)Nc2ccccc21)c1ccccc1", "Potency": "inconclusive: 7.31 µM [activator, partial curve]"}, {"compound": "Clc1ccc(CSc2nc3ccncc3[nH]2)cc1", "Potency": "inconclusive: 0.326 µM [activator, full curve, poor fit]"}, {"compound": "COC(=O)c1[nH]c2cccc(OC)c2c1NC(=O)C(C)N1CCC(C)CC1", "note": "(stereo not given)", "Potency": "inactive"}, {"compound": "Cc1c(C)n(Cc2ccc(Cl)cc2)c2ccc(C(=O)NCCc3ccc(S(N)(=O)=O)cc3)cc12", "Potency": "inconclusive: 5.17 µM [falling, full curve, poor fit]"}, {"compound": "COc1cc(C=CC(=O)OCC=Cc2ccc3c(c2)OCO3)cc(OC)c1OC", "Potency": "inconclusive: 13 µM [falling, partial curve]"}, {"compound": "CCOCc1cnc(C)nc1NCC(=O)c1c(C)[nH]c2ccccc12", "Potency": "inconclusive: 13 µM [falling, partial curve, poor fit]"}, {"compound": "O=C(Nc1ccccc1)N1CCN(C2c3ccccc3-c3ccccc32)CC1", "Potency": "inconclusive: 18.4 µM [falling, single point]"}, {"compound": "CC(C)C(NC(=O)c1c(F)cccc1F)C(=O)N1CCN(c2ccccc2F)CC1", "note": "(stereo not given)", "Potency": "inconclusive: 5.8 µM [falling, partial curve, poor fit]"}, {"compound": "COc1cccc(CNc2ccc3c(c2)nc(C)n3C)c1OC", "Potency": "inconclusive: 25.9 µM [activator, single point]"}, {"compound": "Cc1ccc(CNc2ncnc3cc(Cl)ccc23)cc1", "Potency": "active: 20.6 µM"}, {"compound": "COc1ccc(C(=O)NNC(=S)Nc2ccccc2)cc1", "Potency": "inconclusive: 18.4 µM [activator, partial curve]"}, {"compound": "Cc1cccc(NC(=O)N(Cc2cc3cc(C)cc(C)c3[nH]c2=O)CC2COCCO2)c1", "note": "(stereo not given)", "Potency": "inconclusive: 9.2 µM [falling, partial curve]"}, {"compound": "NC(=O)c1ccc(NC(=O)c2ccc3c(c2)CCN3S(=O)(=O)c2ccccc2)cc1", "Potency": "inconclusive: 11.6 µM [falling, partial curve, poor fit]"}, {"compound": "CC(=O)c1cnc(Nc2ccc(C)cc2)s1", "Potency": "inconclusive: 29.1 µM [activator, single point]"}, {"compound": "Cc1ccnc(NC(=O)c2ccco2)n1", "Potency": "inconclusive: 29.1 µM [activator, single point]"}, {"compound": "COc1ccc(-c2cc(C3CCN(Cc4cccc(C(F)(F)F)c4)CC3)[nH]n2)cc1", "Potency": "inconclusive: 20.6 µM [falling, partial curve]"}, {"compound": "COCCn1c(Sc2ccc(C)cc2)nc2c1c(=O)[nH]c(=O)n2C", "Potency": "inconclusive: 3.66 µM [activator, single point]"}, {"compound": "O=[N+]([O-])c1cc(-c2nc(-c3cccnc3)no2)ccc1NCc1ccccc1", "Potency": "inconclusive: 16.4 µM [falling, single point]"}, {"compound": "CC(C)c1ccc(NC(=O)CN2C(=O)COc3ccc(S(=O)(=O)Nc4ccccc4)cc32)cc1", "Potency": "inactive"}, {"compound": "Cc1onc(-c2ccccc2)c1C(=O)N/N=C/C(Br)=C/c1ccccc1", "Potency": "inconclusive: 16.4 µM [falling, partial curve, poor fit]"}, {"compound": "CC(C)OCCCNC(=O)CCCn1c(SCC(=O)c2ccc(F)cc2)nc2c(sc3ccccc32)c1=O", "Potency": "inactive"}, {"compound": "O=Nc1c(-c2c(O)[nH]c3cc(Br)ccc23)[nH]c2ccccc12", "Potency": "active: 10.3 µM"}, {"compound": "COc1ccc(C(=O)COC(=O)c2cccc(-n3cnnn3)c2)c(OC)c1", "Potency": "inconclusive: 20.6 µM [activator, partial curve]"}, {"compound": "Cc1ccc2c(c1)N=C(c1ccc(Cl)cc1)CO2", "Potency": "inconclusive: 2.06 µM [activator, partial curve, poor fit]"}, {"compound": "COc1ccc(NC(=O)c2sc3nc(C)cc(C)c3c2N)cc1", "Potency": "inconclusive: 20.6 µM [activator, single point]"}, {"compound": "CN(C)S(=O)(=O)Oc1cccc(C(=O)Nc2ccc([N+](=O)[O-])cc2)c1", "Potency": "inconclusive: 6.51 µM [falling, full curve]"}, {"compound": "Cc1ccsc1/C=N/NC(=O)CNC(=O)c1ccccc1", "Potency": "inconclusive: 9.2 µM [falling, partial curve]"}, {"compound": "CCCN1CCN(CCCNC(=O)c2cnn(-c3ccc(F)cc3)c2-n2cccc2)CC1", "Potency": "inactive"}, {"compound": "CCOC(=O)C1=C(c2ccccc2)NC(SCC(=O)Nc2ccc(C)cc2)=C(C#N)C1c1ccco1", "note": "(stereo not given)", "Potency": "active: 20.6 µM"}, {"compound": "O/N=C/c1cc(Br)ccc1OCc1ccc(F)cc1", "Potency": "inconclusive: 32.6 µM [falling, single point]"}, {"compound": "CC(=O)Nc1nc(CC(C)C)cc(-c2ccco2)c1C#N", "Potency": "inactive"}, {"compound": "CCc1sc(C(=O)NCCCn2ccnc2)cc1Br", "Potency": "inconclusive: 0.259 µM [falling, full curve, poor fit]"}, {"compound": "CC(C)CNC(=O)COC(=O)c1c2c(nc3ccccc13)/C(=C\\c1cccs1)CC2", "Potency": "inconclusive: 4.11 µM [activator, full curve]"}, {"compound": "O=C(Nc1sc(-c2ccccc2)cc1C(=O)O)c1ccccc1", "Potency": "inconclusive: 2.59 µM [activator, partial curve, poor fit]"}, {"compound": "CCSc1nnc(-c2cccnc2)n1Cc1ccco1", "Potency": "inconclusive: 6.51 µM [activator, single point]"}, {"compound": "CCOC(=O)c1ccccc1Oc1c(F)c(F)nc(NCCO)c1F", "Potency": "inconclusive: 0.82 µM [falling, full curve, poor fit]"}, {"compound": "Cc1cccc(NC(=S)N=Nc2c(O)[nH]c3ccccc23)c1", "Potency": "inconclusive: 29.1 µM [falling, single point]"}, {"compound": "Cc1cccc(N2CCN(C(=O)CN(C)S(=O)(=O)c3ccc4c(c3)CCC(=O)N4)CC2)c1C", "Potency": "inconclusive: 29.1 µM [falling, single point]"}, {"compound": "Cc1cccc(N2C(=O)CSC23C(=O)N(Cc2cccc(C(F)(F)F)c2)c2ccccc23)c1", "note": "(stereo not given)", "Potency": "inconclusive: 18.4 µM [falling, single point]"}, {"compound": "C/C(=N\\Nc1ccc(F)cc1F)c1ccc(N2CCOCC2)cc1", "Potency": "inactive"}, {"compound": "COc1ccccc1Sc1nc(-c2ccccc2)ncc1OC", "Potency": "inconclusive: 29.1 µM [activator, single point]"}, {"compound": "CCN(CC)S(=O)(=O)c1ccc2[nH]cc(C(=O)NCCN3CCCCC3C)c(=O)c2c1", "note": "(stereo not given)", "Potency": "inactive"}, {"compound": "O=S(=O)(Nc1nc2ccccc2nc1Nc1ccc2c(c1)OCO2)c1ccccc1", "Potency": "inconclusive: 16.4 µM [falling, single point]"}, {"compound": "COc1ccc(NC(=O)CN(c2ccccc2OC)S(=O)(=O)c2cccs2)cc1Cl", "Potency": "inconclusive: 20.6 µM [falling, partial curve, poor fit]"}, {"compound": "COc1ccc2nc(SCC(=O)Nc3c(C)cc(C)cc3C)[nH]c2c1", "Potency": "inconclusive: 0.651 µM [activator, partial curve, poor fit]"}, {"compound": "Cc1ccc(NS(=O)(=O)c2ccc3[nH]c4c(c3c2)CCCCCC4)cc1Cl", "Potency": "inconclusive: 29.1 µM [falling, single point]"}, {"compound": "Cc1ccc(OCC(=O)NCCNC(=O)c2ccc(C)nc2)cc1", "Potency": "inconclusive: 0.58 µM [falling, partial curve, poor fit]"}, {"compound": "Cc1nc2ccc(S(=O)(=O)NCC(=O)NCCN3CCCCCC3)cc2s1", "Potency": "inconclusive: 1.64 µM [activator, full curve, poor fit]"}, {"compound": "COc1ccc(C(=O)N2CCC(C(N)=O)CC2)cc1S(=O)(=O)N1CCCC1", "Potency": "inactive"}, {"compound": "O=C(Nc1ccc(S(=O)(=O)NC2=NCCCCC2)cc1)c1ccc([N+](=O)[O-])s1", "Potency": "inactive"}, {"compound": "CCCOC(=O)c1ccc(NC(=O)Cc2csc(C)n2)cc1", "Potency": "inconclusive: 23.1 µM [activator, partial curve, poor fit]"}, {"compound": "CC(=O)C1=C(C)NC(SCC(=O)c2cc(Cl)ccc2Cl)=C(C#N)C1c1ccco1", "note": "(stereo not given)", "Potency": "active: 7.31 µM"}, {"compound": "COCCCNC(=O)CSc1c2c(nc3ccc(Cl)cc13)CCCC2", "Potency": "inconclusive: 20.6 µM [falling, partial curve, poor fit]"}, {"compound": "Cc1cc(=O)c2cc(Br)ccc2n1CC(=O)NCc1ccccc1", "Potency": "inconclusive: 14.6 µM [falling, partial curve, poor fit]"}, {"compound": "CNC(=O)c1nnsc1S(=O)c1ccc(Cl)cc1", "note": "(stereo not given)", "Potency": "inconclusive: 16.4 µM [activator, single point]"}, {"compound": "CCN1CCN(c2ncnc3c2cnn3-c2ccccc2)CC1", "Potency": "inconclusive: 6.51 µM [activator, partial curve, poor fit]"}, {"compound": "CC1CN(S(=O)(=O)c2cccc(C(=O)OC/C(O)=C(\\C#N)c3nc4ccccc4[nH]3)c2)CC(C)O1", "note": "(stereo not given)", "Potency": "inconclusive: 29.1 µM [falling, single point]"}, {"compound": "CCOC(=O)c1ccccc1NS(=O)(=O)c1ccccc1", "Potency": "active: 23.1 µM"}, {"compound": "CCOc1ccc(C2c3c(oc4ccc(C)cc4c3=O)C(=O)N2Cc2ccc3c(c2)OCO3)cc1OC", "note": "(stereo not given)", "Potency": "inactive"}]}]}
